At least one compound was matched to its structure with a doubt left.
Tested on: MDA-MB-231
Test: Transmission electron microscopy of mitochondrial morphology
Type: cell-based
Conditions: AuTri-9 10 μM for 1 h
Description: Transmission Electron Microscopy. MDA-MB-231 cells were seeded in 6 well plates and allowed to grow to 85% confluency. The cells were then treated with AuTri-9 at a concentration of 10 μM (<1% DMSO) for 1 h at 37° C. Growth media were removed and immediately and added 3% glutaraldehyde at 4° C. in 0.1 M Sorenson's or Cacodylate Buffer. After 5 minutes remove fix and replace with fresh fixative, leave for 45 min-1 hr at 4° C., washed in 0.1 M buffer w/5% sucrose 4×, 5 minutes each. Post fix, the cells were stained with 1% OsO4 in 0.1 M buffer for 1 hr at 4° C. and washed in 0.1 M buffer 1×. The cells were dehydrated in graded ethanols, 5 minutes each, from 50% through 100% and absolute ethanol (2×) at 4° C. After the last alcohol wash remove the residual alcohol with a small pipette and immediately add straight resin (14.5 g Eponate 12, 8.0 g DDSA, 7.15 g NMA, and 0.85 gm BDMA) to the dish. Swirl the dish and then remove as much of the resin, (which may contain residual alcohol), with a plastic pipette being careful not to disturb the cell layer. Then add straight resin 2× for 1-2 hours and place under the lamp, on a shaker. Pour off the 2nd straight resin wash, let the plate drain well (leaving a layer of resin on the bottom) and invert labeled beem capsules into each well that have had the conical ends removed. […]

Row | Compound | mitochondrial morphology by TEM
1 | CO[C@H]1C[C@@H]2CC[C@@H](C)[C@@](O)(O2)C(=O)C(=O)N2CCCC[C@H]2C(=O)O[C@H]([C@H](C)C[C@@H]2CC[C@@H](O)[C@H](OC)C2)CC(=O)[C@H](C)/C=C(\C)[C@@H](O)[C@@H](OC)C(=O)[C@H](C)C[C@H](C)/C=C/C=C/C=C/1C [rapamycin] | no distinct morphological changes to mitochondria
2 | CCOc1ccccc1-n1c(C(C)N2CCN(C(=O)COc3ccc(Cl)cc3)CC2)nc2ccccc2c1=O (centres unmarked) [erastin] | mitochondrial shrinkage
